PMC11777248
Results are given in words; binding and its absence hold for the method and conditions named. Binding seen in cells or lysates may run through a third protein. A result given as binding can be weak or reduced; the word gives no strength. Tags and fused reporters may be left off the sequences shown.

Protein sequences, listed by entry. Tags and fused reporters are not part of them. Lines headed by an entry give the natural chain unless they say otherwise; changes in a name come on top.
UniProt Q9CAJ0: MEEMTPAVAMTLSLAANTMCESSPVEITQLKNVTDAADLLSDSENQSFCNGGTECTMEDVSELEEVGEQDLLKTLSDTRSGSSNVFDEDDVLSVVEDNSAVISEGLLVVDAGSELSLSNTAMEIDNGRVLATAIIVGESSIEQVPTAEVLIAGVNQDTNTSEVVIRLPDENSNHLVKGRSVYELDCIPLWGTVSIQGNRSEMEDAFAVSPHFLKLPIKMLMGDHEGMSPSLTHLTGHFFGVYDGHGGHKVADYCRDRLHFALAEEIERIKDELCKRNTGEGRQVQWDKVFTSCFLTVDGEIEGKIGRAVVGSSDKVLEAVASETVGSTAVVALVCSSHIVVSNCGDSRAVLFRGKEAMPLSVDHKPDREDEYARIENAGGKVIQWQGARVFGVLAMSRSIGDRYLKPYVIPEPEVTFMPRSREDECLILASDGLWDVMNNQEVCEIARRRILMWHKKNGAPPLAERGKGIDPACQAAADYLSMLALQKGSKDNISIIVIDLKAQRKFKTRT

Tests used:
[1] = target: T1, SnRK2.1 nLUC fusion (Arabidopsis) (UniProt P43292); assay: split reporter; split-LUC complementation; SnRK2s in pCAMBIA-35S-nLUC, PP2Cs in pCAMBIA-35S-cLUC; transient expression in N. benthamiana leaves, LUC activity read 2 days after infiltration with D-luciferin
T1 sequence: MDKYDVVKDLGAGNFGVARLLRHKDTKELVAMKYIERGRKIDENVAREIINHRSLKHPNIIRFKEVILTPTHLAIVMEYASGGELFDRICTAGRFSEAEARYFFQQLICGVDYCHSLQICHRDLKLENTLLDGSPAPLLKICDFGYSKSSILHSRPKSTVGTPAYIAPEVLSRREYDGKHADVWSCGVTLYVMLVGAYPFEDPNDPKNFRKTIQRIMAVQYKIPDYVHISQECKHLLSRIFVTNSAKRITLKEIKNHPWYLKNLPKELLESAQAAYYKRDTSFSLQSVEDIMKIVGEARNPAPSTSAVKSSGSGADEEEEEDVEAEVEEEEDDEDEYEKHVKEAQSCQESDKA

[2] = target: T2, SnRK2.4 nLUC fusion (Arabidopsis) (UniProt P43291); assay: as above
T2 sequence: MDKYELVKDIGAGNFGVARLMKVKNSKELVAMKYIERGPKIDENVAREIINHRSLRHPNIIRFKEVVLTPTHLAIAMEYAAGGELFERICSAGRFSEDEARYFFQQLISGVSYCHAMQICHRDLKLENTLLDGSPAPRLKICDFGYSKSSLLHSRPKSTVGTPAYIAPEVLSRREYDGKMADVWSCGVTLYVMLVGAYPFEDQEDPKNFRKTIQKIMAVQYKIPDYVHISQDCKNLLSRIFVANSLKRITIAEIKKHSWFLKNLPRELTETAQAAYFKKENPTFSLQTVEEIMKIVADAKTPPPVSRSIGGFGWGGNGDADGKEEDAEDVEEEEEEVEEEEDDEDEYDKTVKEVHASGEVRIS

binding [1]: binds
binding [2]: binds
Substance: HAB1 cLUC fusion (from UniProt Q9CAJ0) (enzyme)
